Test results from PubChem BioAssay AID540276 (National Center for Advancing Translational Sciences (NCATS), 2011).
Out of some 300,000 compounds screened, about 5,400 (1.8%) were called active. Inconclusive results, whose numbers are uncertain, are shown with a selection of clear calls. The call rests on the fitted dose curve; tested in HEK293 cells. Potencies beside an inconclusive call are fits to weak or partial responses and may not hold up.

Assay: qHTS for inhibitors of binding or entry into cells for Marburg Virus
Settings: Marburg virus pseudotyped entry inhibition, cell reporter; series mostly up to 37.8 µM
Potency means the concentration at half of the fitted maximal effect.

| SMILES | Potency |
| --- | --- |
| CCOC(=O)N1CCN(C(=O)CN(C)S(=O)(=O)c2ccc(OCC)cc2)CC1 | inconclusive: 35.5 µM [activator, single point] |
| CCOc1ncccc1C(=O)OCC(=O)Nc1cc(C(C)(C)C)ccc1OC | inconclusive: 7.08 µM [inhibitor, partial curve, poor fit] |
| Cc1cc(NC(=O)Nc2cccc(Cl)c2)n(C(C)(C)C)n1 | inconclusive: 1.78 µM [inhibitor, partial curve, poor fit] |
| Cc1cnc(NC(=O)C(C)N2C(=O)C3CC=CCC3C2=O)s1 (centres undefined) | inactive |
| CC(C)(C)c1cc(C(F)(F)F)n2ncc(-c3ccccc3)c2n1 | inactive |
| CCCOc1ccc(S(=O)(=O)NCCCN2CCOCC2)c2ccccc12 | inconclusive: 35.5 µM [inhibitor, single point] |
| CCCCCC1CCC(c2n[nH]c(=S)n2C)CC1 (centres undefined) | inconclusive: 20 µM [inhibitor, single point] |
| N#Cc1cccc(C(=O)Nc2cc(S(=O)(=O)N3CCOCC3)ccc2N2CCCC2)c1 | inconclusive: 11.2 µM [inhibitor, partial curve, poor fit] |
| Cc1ccc(N2C(=O)c3ccc(C(=O)N4CCOCC4)cc3C2=O)cc1C | inactive |
| COC(=O)C1=C(C(=O)OC)[C@@H]2N(C)c3ccccc3[C@@]23C[C@@H](C(=O)OC)N(C(=O)NC2CCCC2)C3=N1 | inconclusive: 0.473 µM [inhibitor, partial curve, poor fit] |
| CS(=O)(=O)N(Cc1ccc(Cl)cc1)c1ccc(C(=O)Nc2cccnc2)cc1 | inconclusive: 18.3 µM [inhibitor, single point] |
| COc1ccc(NC(=O)CNCCC2=CCCCC2)cc1 | inconclusive: 2.59 µM [activator, partial curve, poor fit] |
| Cc1ccc(NC(=O)CSc2nnc(-c3cccnc3)o2)c(C)c1 | inactive |
| COc1cccc(CNC(=O)c2cnc(-c3ccccn3)nc2C(F)(F)F)c1 | inconclusive: 0.562 µM [inhibitor, single point] |
| Cn1cnc2c(N/N=C/c3cccs3)ncnc21 | inconclusive: 6.31 µM [activator, partial curve, poor fit] |
| Oc1ccc(NCc2ccc(OCc3ccccc3Cl)cc2)cc1 | inconclusive: 1.41 µM [activator, single point] |
| COc1ccc(OC)c(-c2cc(C(=O)N3CCc4ccccc4C3)no2)c1 | inactive |
| CC(C)CCNC(=O)c1ccc2c(c1)N(Cc1ccccc1F)C(=O)c1ccccc1S2=O (centres undefined) | inactive |
| CN(C)C(CNC(=O)c1ccc(NC(=O)c2cccs2)cc1)c1ccccc1 (centres undefined) | inconclusive: 35.5 µM [inhibitor, single point] |

3 structures out of the list, arranged by heavy-atom count, descending.

| SMILES | Potency |
| --- | --- |
| N#Cc1cccc(C(=O)Nc2cc(S(=O)(=O)N3CCOCC3)ccc2N2CCCC2)c1 | inconclusive: 11.2 µM [inhibitor, partial curve, poor fit] |
| COc1cccc(CNC(=O)c2cnc(-c3ccccn3)nc2C(F)(F)F)c1 | inconclusive: 0.562 µM [inhibitor, single point] |
| CCCCCC1CCC(c2n[nH]c(=S)n2C)CC1 (centres undefined) | inconclusive: 20 µM [inhibitor, single point] |
